Strings that start with PEPTIDE1 are HELM notation: dots part the residues, brackets hold end groups and non-standard residues.
Experiment: general procedure: Fmoc solid-phase peptide synthesis; sulfamylbutyryl resin; PyBop/1-hydroxybenzotriazole/diisopropylethylamine
Details: whole synthesis, overall, scale 1 g resin

PEPTIDE1{[3Hpa].[Dap].T.[Orn].L.[dF].P.F}$PEPTIDE1,PEPTIDE1,2:R3-8:R2$$$V2.0
isolated mass: 10 mg | isolated yield: 1.3%

From patent US7169756B2 (priority 2005, dated 2007)
